Patent US20250129170A1
No constants are given. Whether binding was seen depends on the method and setting. Some binding calls cover weakened binding; strength is not graded here.

Chains of the proteins cited; added tags and fusions are not shown. Lines headed by an entry give the natural chain unless they say otherwise; changes in a name come on top. Residues count along the entry.
UniProt P19235, residues 25-250: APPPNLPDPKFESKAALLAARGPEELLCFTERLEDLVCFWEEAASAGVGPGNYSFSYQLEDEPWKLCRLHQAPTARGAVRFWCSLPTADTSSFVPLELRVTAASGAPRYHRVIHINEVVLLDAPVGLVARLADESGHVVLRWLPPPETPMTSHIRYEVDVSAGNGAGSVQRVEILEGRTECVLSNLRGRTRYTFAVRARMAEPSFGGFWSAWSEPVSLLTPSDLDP

Biological target: recombinant hEPOR-Fc (SinoBiological, Cat #10707-H02H) (human) (UniProt P19235)
Assay: B cells sorted by flow cytometry on labeled hEPOR-Fc, single cell sequencing

binding | Binder
binds | anti-EPOR antibody clonotype506 (antibody, V domains shown) VH: QVQLVESGGGVVRPGGSLRLSCAASGFTFDDYGMSWVRQAPGKGLEWVSGINWNGGSTGYADSVKGRFTISRDNAKNSLYLQMNSLRAEDTALYYCARENYDFWSGFDPWGQGTLVTVSS VL: QSALTQPASVSGSPGQSITISCTGTSSDVGGYNYVSWYQQHPGKAPKLMIYEVSNRPSGVSNRFSGSKSGNTASLTISGLQAEDEADYYCSSYTSSSTVVFGGGTKLTVL
binds | anti-EPOR antibody clonotype507 (antibody, V domains shown) VH: QVHLQQSGPGLVKPSQTLSLTCAISGDSVSSNSAAWNWIRQSPSRGLEWLGRTYYRSKWYNGYAESVKSRITINPDTSKNQFSLQLNSVTPEDTAVYYCAREDRGFDYWGQGTLVTVSS VL: QSALTQPASVSGSPGQSITISCTGTSSDVGGYNYVSWYQQHPGKAPKLMIYDVSKRPSGVSNRFSGSKSGNTASLTISGLQAEDEADYYCCSYAGSSNVVFGGGTNLTVL
binds | anti-EPOR antibody clonotype10 (antibody, V domains shown) VH: QVQLQQSGPGLVKPSQTLSLTCAISGDSVSSNSAAWNWIRQSPSRGLEWLGRTYYRSKWYNDYAVSVKSRITINPDTSKNQFSLQLNSVTPEDTAVYYCARKGELLGAFDIWGQGTMVTVSS VL: QSALTQPASVSGSPGQSITISCTGTSSDVGGYNYVSWYQQHPGKAPKLMIYEVSNRPSGVSNRFSGSKSGNTASLTISGLQAEDEADYYCSSYTSSSTWVFGGGTKLTVL
binds | anti-EPOR antibody clonotype95 (antibody, V domains shown) VH: EVQLVESGGGLVQPGGSLRLSCAASGFTFSSYSMNWVRQAPGKGLEWVSYISSSSSTIYYADSVKGRFTISRDNAKNSLYLQMNSLRDEDTAVYYCARDRYNFDYWGQGTLVTVSS VL: QSALTQPRSVSGSPGQSVTISCTGTSSDVGGYNYVSWYQQHPGKAPKLMIYDVSKRPSGVPDRFSGSKSGNTASLTISGLQAEDEADYYCCSYAGSSWVFGGGTKLTVL
binds | anti-EPOR antibody clonotype69 (antibody, V domains shown) VH: QVQLQESGPGLVKPSGTLSLTCAVSGGSISSSNWWSWVRQPPGKGLEWIGEIYHSGSTNYNPSLKSRVTISVDKSKNQFSLKLSSVTAADTAVYYCARRGAARPFDYWGQGTLVTVSS VL: QAVLTQPASLSASPGASASLTCTLRSGINVGTYRIYWYQQKPGSPPQYLLRYKSDSDKQQGSGVPSRFSGSKDASANAGILLISGLQSEDEADYYCMIWHSSAYVVFGGGTKLTVL
binds | anti-EPOR antibody clonotype517 (antibody, V domains shown) VH: QVQLQESGPGLVKPSGTLSLTCAVSGGSISSNNWWSWVRQPPGKGLEWIGEIYHSGSTNYNPSLKSRVTISVDKSKNQFSLKLSSVTAADTAVYYCARVLNWNYGDAFDIWGQGTMVTVSS VL: SYELTQPPSVSVSPGQTARITCSGDALPKKYAYWYQQKSGQAPVLVIYEDSKRPSGIPERFSGSSSGTMATLTISGAQVEDEADYYCYSTDSSGNHRGFGGGTKLTVL
binds | anti-EPOR antibody clonotype518 (antibody, V domains shown) VH: QVQLQESGPGLVKPSGTLSLTCAVSGGSISSSNWWSWVRQPPGKGLEWIGEIYHSGSTNYNPSLKSRVTISVDKSKNQFSLKLSSVTAADTAVYYCARDPSIVGATAFDIWGQGTMVTVSS VL: QSALTQPRSVSGSPGQSVTISCTGTSSDVGGYNYVSWYQQHPGKAPKLMIYDVSKRPSGVPDRFSGSKSGNTASLTISGLQAEDEADYYCCSYAQGVVFGGGTKLTVL
binds | anti-EPOR antibody clonotype519 (antibody, V domains shown) VH: QVQLQESGPGLVKPSGTLSLTCAVSGGSIISSNWWSWVRQSPGKGLGWIGEIYHSGSTTYNPSLKSRVTISVDKSKNQFSLKLSSVTAADTALYYCARSHIVGVNGGFDYWGQGTLVTVSS VL: SSELTQDPAVSVALGQTVRITCQGDSLRSYYASWYQQKPGQAPVLLIYGKNNRPSGIPDRFSGSSSGNTASLTITGAQAEDEADYYCNSRDSSGNHWVFGGGTKLTVL
binds | anti-EPOR antibody clonotype520 (antibody, V domains shown) VH: EVQLVESGGGLVKPGGSLRLSCAASGFTFSSYSMNWVRQAPGKGLEWVSSISSSSSYIYYADSVKGRFTISRDNAKNSLYLQMNSLRAEDTAVYYCARDRYNWNYRAFDIWGQGTMVTVSS VL: SSELTQDPAVSVALGQTVRITCQGDSLRSYYASWYQQKPGQAPVLVIYGKNNRPSGIPDRFSGSSSGNTASLTITGAQAEDEADYYCNSRDSSGNHLVFGTGTKVTVL
binds | anti-EPOR antibody clonotype110 (antibody, V domains shown) VH: QVQLQQWGAGLLKPSETLSLTCAVYGGSFSGYYWSWIRQPPGKGLEWIGEINHSGSTNYNPSLKSRVTISVDTSKNQFSLKLSSVTAADTAVYYCASYGDFFDYWGQGTLVTVSS VL: LPVLTQPPSASALLGASIKLTCTLSSEHSTYTIEWYQQRPGRSPQYIMKVKSDGSHSKGDGIPDRFMGSSSGADRYLTFSNLQSDDEAEYHCGESHTIDGQVGVVFGGGTKLTVL
binds | anti-EPOR antibody clonotype111 (antibody, V domains shown) VH: EVQLVESGGGLVKPGGSLRLSCAASGFTFSSYSMNWVRQAPGKGLEWVSSISSSSSYIYYADSVKGRFTISRDNAKNSLYLQMNSLRAEDTAVYYCARETELTVMDVWGKGTTVTVSS VL: LPVLTQPPSASALLGASIKLTCTLSSEHSTYTIEWYQQRPGRSPQYIMKVKSDGSHSKGDGIPDRFMGSSSGADRYLTFSNLQSDDEAEYHCGESHTIDGQVGWVFGGGTKLTVL
binds | anti-EPOR antibody clonotype509 (antibody, V domains shown) VH: EVQLVESGGGLVQPGGSLRLSCAASGFTFSSYSMNWVRQAPGKGLEWVSYISSSSNTIYYADSVKGRFTISRDNAKNSLYLQMSSLRDEDTAVYYCARTSSWSYDAFDIWGQGTMVTVSS VL: QSALTQPPSASGSPGQSVTISCTGTSSDVGGYNYVSWYQQHPGKAPKLMIYEVSKRPSGVPDRFSGSKSGNTASLTVSGLQAEDEADYYCSSYAGSNNFVVFGGGTKLTVL
binds | anti-EPOR antibody clonotype56 (antibody, V domains shown) VH: EVQLVESGGDLVQPGGSLKLSCAASGFSFSGSTLHWVRQASGKGLEWIGHIRSKPNNYATLYGASVKGRFTISRDDSKNTAYLQMNSLKIEDTAVYYCNGVYGGSSYFFDYWGQGTLVTVSS VL: QAVLTQPASLSASPGASASLTCTLRSGINVGTYRIYWYQQKPGSPPQYLLRYKSDSDKQQGSGVPSRFSGSKDASANAGILLISGLQSEDEADYYCMIWHSSAVVFGGGTKLTVL
binds | anti-EPOR antibody clonotype508 (antibody, V domains shown) VH: EVQLVESGGGLVQPGRSLRLSCAASGFTFDDYAMHWVRQAPGKGLEWVSGISWNSGSIGYADSVKGRFTISRDNAKNSLYLQMNSLRAEDTALYYCAKRAVVTDYYMDVWGKGTTVTVSS VL: QSALTQPASVSGSPGQSITISCTGTSSDVGGYNYVSWYQQHPGKAPKLMIYDVSKRPSGVSNRFSGSKSGNTASLTISGLQAEDEADYYCCSYAGSSTFWVFGGGTKLTVL
binds | anti-EPOR antibody clonotype103 (antibody, V domains shown) VH: QVQLVQSGAEVKKPGASVKVSCKASGYTFTSYGISWVRQAPGQGLEWMGWISVYNGNTNYAQKLQGRVTMTTDTSTSTAYMELRSLRSDDTAVYYCARQITATRGFDYWGQGTLVTVSS VL: QSALTQPASVSGSPGQSITISCTGTSSDVGGYNYVSWYQQHPGKAPKLMIYDVSKRPSGVSNRFSGSKSGNTASLTISGLQAEDEADYYCCSYAGSSTFVVFGGGTKLTVL
binds | anti-EPOR antibody clonotype44 (antibody, V domains shown) VH: QVQLVQSGAEVKKPGASVKVSCKASGYTFTSYGISWVRQAPGQGLEWMGWISPYNGNTNYAQNLQDRVTMITDTSTTTAYMELRSLRSDDTAVYYCARNHYYYMDVWGKGTTVTVSS VL: QSALTQPASVSGSPGQSITISCTGTSSDVGGYNYVSWYQQHPGKAPKLMIYDVSKRPSGVSNRFSGSKSGNTASLTISGLQAEDEADYYCCSYAGSSTYVVFGGGTKLTVL
binds | anti-EPOR antibody clonotype102 (antibody, V domains shown) VH: EVQLVQSGAEVKKPGESLKISCKGSGYSFTSYWIGWVRQMSGKGLEWMGIIYPSDSDTRYSPSFQGQVTISADKSISTAYLQWSSLKASDTAMYYCARQINWGAIDYWGQGTLVTVSS VL: QSALTQPASVSGSPGQSITISCTGTSSDVGGYNYVSWYQQHPGKAPKLMIYDVSKRPSGVSNRFSGSKSGNTASLTISGLQAEDEADYYCCSYAGSSTFVVFGGGTKLTVL
binds | anti-EPOR antibody clonotype499 (antibody, V domains shown) VH: EVHLVESGGGLVKPGGSLRLSCAASGFTFSNAWMSWVRQAPGKGLEWVGRIKRKTDGGTTDFASPVKGRFTISRDDSNNTLYLQMNSLKTEDTAVYYCTTASTVTTGDYWGQGTLVTVSS VL: SYELTQPPSVSVSPGQTARITCSADALPKQYAYWYQQKPGQAPVLVIYKDSERPSGIPERFSGSSSGTTVTLTISGVQAEDEADYYCQSADSSGTYPVFGGGTKLTVL
binds | anti-EPOR antibody clonotype13 (antibody, V domains shown) VH: QVQLQQSGPGLVKPSQTLSLTCAISGDSVSSNSAAWNWIRQSPSRGLEWLGRTYYRSKWYNDYAGSVKSRIIIIPDTSKNQLSLQLKSVTPEDTAVYYCARKWELRDAFDIWGQGTMVTVSS VL: QSALTQPASVSGSPGQSITISCTGTSSDVGGYNYVSWYQQHPGKAPKLMIYDVSKRPSGVSNRFSGSKSGNTASLTISGLQAEDEADYYCCSYAGRSTLGIDWVFGGGTKVTVL
binds | anti-EPOR antibody clonotype109 (antibody, V domains shown) VH: QVQLQQSGPGLVKPSQTLSLTCAISGDSVSSNSAAWSWIRQSPSRGLEWLGRTYYRSKWYNDYAVSVKSRITINPDTSKNQFSLQLNSVTPEDTAVYYCARKWELRDTFDIWGQGTMVTVSS VL: QSALTQPASVSGSPGQSITISCTGTSSDVGGYNYVSWYQQHPGKAPKLMIYDVSKRPSGVSNRFSGSKSGNTASLTISGLQAEDEADYYCCSYAGSSTLGIDWVFGGGTKLTVL
binds | anti-EPOR antibody clonotype512 (antibody, V domains shown) VH: EVQLVESGGGLVQPGGSLRLSCAASGFNFSSYNMNWVRQTPGKGLEWVSYISNTGNTIYYVDSVKGRFTISRDNAKNSLYLQLNSLRDEDTAVYFCARDGPQVGATDFDYWGQGTLVTVSS VL: SYELTQPSSVSVSPGQTAKITCSGDVLAKKYARWFQQKPGQVPVLVIYKDSERPSGIPERFSGSSSGATVTLTISGAQVEDEADYYCYSAADNKVFGGGTKLTVL
binds | anti-EPOR antibody clonotype36 (antibody, V domains shown) VH: EVQLVESGGGLVTPGGSLRLSCAASGFTFNNYSMNWVRQAPGKGLEWVSSISSSSSYIYYADSVKGRFTISRDNAKNSLYLPMISLRAEDTAVYYCARDGITGTTFYFDYWGQGTLVTVSS VL: QSALTQPRSVSGSPGQSVTISCTGTSSDVGGYNYVSWYQQHPGKAPKLMIYDVSKRPSGVPDRFSGSKSGNTASLTISGLQAEDEADYYCCSYAGSYTWVFGGGTKLTVL
